This is an account of results in the supplement of paper PMC4635364.

Counter-ions that a name gives are not always drawn. The list shows a part of the results. This data set is noisy: repeats of one test often differ as much as different tests do.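 ReNCell VM, a human fetal ventral-midbrain neural progenitor line, was differentiated without mitogens. Blinded raters scored images stained for doublecortin (early neurons) or tyrosine hydroxylase (dopaminergic neurons) against untreated wells (0 = no change). Scores were averaged across repeats and both raters, and compounds averaging 2 or more were selected as hits for retesting.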

The subject of the first assay is ReNCell VM. Description: dopaminergic neuron differentiation score (TH+ cell fraction vs untreated, manual image score) (score (0 to 3)); higher = more TH+ dopaminergic neuron differentiation. The note with it: library: LOPAC; 2 uM; 4 weeks; BDNF 10 ng/ml + GDNF 10 ng/ml.
In the case of `Clc1cnc(Oc2ccc(Oc3ncc(Cl)cc3Cl)cc2)c(Cl)c1`, the “dopaminergic neuron differentiation score” value was inactive: 0.

Consider `Cc1cccc(C)c1NC1=NCCCS1` [Xylazine hydrochloride], for which the “dopaminergic neuron differentiation score” value is inactive: 0.

As for `Cc1c(C(=O)c2cccc3ccccc23)c2cccc3c2n1[C@H](CN1CCOCC1)CO3` [( R)-(+)-WIN 55,212-2 mesylate], the “dopaminergic neuron differentiation score” value was inactive: 0.

On to `NC(N)=Nc1ccc2[nH]c3c(c2c1)C[C@@]1(O)[C@H]2Cc4ccc(O)c5c4[C@@]1(CCN2CC1CC1)[C@H]3O5` [Guanidinyl-naltrindole di-trifluoroacetate], for which the “dopaminergic neuron differentiation score” value is inactive: 0.

In the case of `N#CC(C#N)=Cc1ccc(O)c(O)c1` [Tyrphostin 23], the “dopaminergic neuron differentiation score” value is inactive: 1.

Turning to `NC(Cc1cc(O)c(O)cc1O)C(=O)O` (racemic) [6-Hydroxy-DL-DOPA], the “dopaminergic neuron differentiation score” value is inactive: 0.

In the case of `O=C(OC1CCN(CCCl)CC1)C(c1ccccc1)c1ccccc1` [4-Diphenylacetoxy-N-(2-chloroethyl)piperidine hydrochloride], the “dopaminergic neuron differentiation score” value was inactive: 0.

The assay is the same for the next values; noted with them: library: Natural; 2 uM; 4 weeks; BDNF 10 ng/ml + GDNF 10 ng/ml.
Turning to `CC[C@]12C=CCN3CC[C@]4(C(=C(C(=O)OC)C1)Nc1ccccc14)[C@@H]32` [tabersonine], the “dopaminergic neuron differentiation score” value was inactive: 0.

On to `O[C@H]1[C@H](O)[C@@H](O)CN2CC[C@H](O)[C@H]12` [castanospermine], for which the “dopaminergic neuron differentiation score” value was inactive: 0.

With `C1=C2CCCN[C@H]2[C@@H]2C[C@H]1[C@H]1CCCCN1C2` [aloperine], the “dopaminergic neuron differentiation score” value is inactive: 0.

Still in this assay, the particulars now being: library: Prestwick; 2 uM; 4 weeks; BDNF 10 ng/ml + GDNF 10 ng/ml.
For `CC(=O)O[C@H]1CC[C@@]2(C)C(=CC[C@@H]3[C@@H]2CC[C@]2(C)C(=O)CC[C@@H]32)C1` [Dehydroisoandosterone 3-acetate], the “dopaminergic neuron differentiation score” value was inactive: 0.

As to `C[C@]12CC[C@@H](O)C[C@H]1CC[C@@H]1[C@@H]2CC[C@]2(C)C(=O)CC[C@@H]12` [3-alpha-Hydroxy-5-beta-androstan-17-one], the “dopaminergic neuron differentiation score” value is inactive: 0.

For `O=C(NCNC(=O)NC1C(=O)NC(=O)N1CO)NC1C(=O)NC(=O)N1CO` (stereo unspecified) [Imidurea], the “dopaminergic neuron differentiation score” value was inactive: 0.

Turning to `C[C@]12N[C@H](Cc3ccccc31)c1ccccc12` [Dizocilpine maleate], the “dopaminergic neuron differentiation score” value is inactive: 0.

The same assay, now with this note: library: Spectrum; 2 uM; 4 weeks; BDNF 10 ng/ml + GDNF 10 ng/ml.
Turning to `O=[N+]([O-])c1ccc([As](=O)(O)O)cc1`, the “dopaminergic neuron differentiation score” value was inactive: 0.

In the case of `CC(C)c1c(CN(C)C(C)Cc2ccccc2)n(C)n(-c2ccccc2)c1=O` (stereo unspecified), the “dopaminergic neuron differentiation score” value was inactive: 0.

With `CC(CC(C(N)=O)(c1ccccc1)c1ccccc1)N(C)C` (stereo unspecified), the “dopaminergic neuron differentiation score” value was inactive: 0.

As for `C[C@H]1CC[C@]2(NC1)O[C@H]1C[C@H]3[C@@H]4CC[C@H]5C[C@@H](O[C@@H]6O[C@H](CO)[C@H](O[C@@H]7O[C@H](CO)[C@@H](O)[C@H](O[C@@H]8OC[C@@H](O)[C@H](O)[C@H]8O)[C@H]7O[C@@H]7O[C@H](CO)[C@@H](O)[C@H](O)[C@H]7O)[C@H](O)[C@H]6O)CC[C@]5(C)[C@H]4CC[C@]3(C)[C@H]1[C@@H]2C`, the “dopaminergic neuron differentiation score” value was inactive: 0.

Turning to `CC1(C)C(C=C(Cl)Cl)C1C(=O)OC(C#N)c1cccc(Oc2ccccc2)c1` (stereo unspecified), the “dopaminergic neuron differentiation score” value is inactive: 0.

With `C[N+]1(C)CCCC(OC(=O)C(O)(c2ccccc2)c2ccccc2)C1` (stereo unspecified), the “dopaminergic neuron differentiation score” value was inactive: 0.

Take `c1ccc2c(c1)OCC(C1=NCCN1)O2` (stereo unspecified): the “dopaminergic neuron differentiation score” value is inactive: 0.

In the case of `C[C@@H]1CC[C@@]2(OC1)O[C@H]1[C@@H](O)[C@H]3[C@@H]4CC[C@H]5C[C@@H](O[C@@H]6O[C@H](CO)[C@H](O[C@@H]7O[C@H](CO)[C@@H](O)[C@H](O[C@@H]8OC[C@@H](O)[C@H](O)[C@H]8O)[C@H]7O[C@@H]7O[C@H](CO)[C@H](O)[C@H](O[C@@H]8O[C@H](CO)[C@@H](O)[C@H](O)[C@H]8O)[C@H]7O)[C@H](O)[C@H]6O)[C@H](O)C[C@]5(C)[C@H]4CC[C@]3(C)[C@H]1[C@@H]2C`, the “dopaminergic neuron differentiation score” value is inactive: 0.

`CN1C[C@H](CNC(=O)OCc2ccccc2)C[C@@H]2c3cccc4c3c(cn4C)C[C@H]21`: the “dopaminergic neuron differentiation score” value is inactive: 0.

As to `O=C1CCC[C@@H]2[C@H]3C[C@@H](CN12)[C@@H]1CCCCN1C3.[O-][Cl+3]([O-])([O-])O`, the “dopaminergic neuron differentiation score” value is inactive: 0.

With `NCC(CC(=O)O)c1ccc(Cl)cc1` (stereo unspecified), the “dopaminergic neuron differentiation score” value is inactive: 0.

Regarding `O=c1c(O)c(-c2ccc(O)c(O)c2)oc2c(O)c(O)cc(O)c12`, the “dopaminergic neuron differentiation score” value is inactive: 0.

On to `O=C(O)Cc1cnc[nH]1`, for which the “dopaminergic neuron differentiation score” value was inactive: 0.

With `O=C1NC(=O)C(=O)C(=O)N1`, the “dopaminergic neuron differentiation score” value was inactive: 0.

As for `CN1C2CC(=O)CC1C(O)C2` (stereo unspecified), the “dopaminergic neuron differentiation score” value is inactive: 0.

`COc1ccc(C[C@H]2NC[C@H](O)[C@H]2OC(C)=O)cc1`: the “dopaminergic neuron differentiation score” value is inactive: 0.

The same assay, now with this note: library: Tocriscreen; 2 uM; 4 weeks; BDNF 10 ng/ml + GDNF 10 ng/ml.
Consider `Cc1nnc2n1-c1sc(CCC(=O)N3CCOCC3)cc1C(c1ccccc1Cl)=NC2`, for which the “dopaminergic neuron differentiation score” value is inactive: 0.

Turning to `O=C(O)Cc1cccnc1C(=O)O` [Homoquinolinic acid], the “dopaminergic neuron differentiation score” value was inactive: 0.

Regarding `NC1(c2ccccc2Cl)CCCCC1=O` (stereo unspecified) [Norketamine hydrochloride], the “dopaminergic neuron differentiation score” value was inactive: 0.

For the molecule `O=Cc1cn(Cc2ccc(Cl)cc2)c2ccccc12` [Oncrasin 1], the “dopaminergic neuron differentiation score” value is inactive: 0.

Consider `C[N+](C)(C)CC#CCN1CCCC1=O` [Oxotremorine M], for which the “dopaminergic neuron differentiation score” value is inactive: 0.

On to `NCC(CS(=O)(=O)O)c1ccc(Cl)cc1` (stereo unspecified) [Saclofen], for which the “dopaminergic neuron differentiation score” value is inactive: 0.
